Data: paper PMC9949642

Target: T1, ZTF-7::GFP::3xFLAG (C. elegans) (UniProt Q20448)
T1 sequence: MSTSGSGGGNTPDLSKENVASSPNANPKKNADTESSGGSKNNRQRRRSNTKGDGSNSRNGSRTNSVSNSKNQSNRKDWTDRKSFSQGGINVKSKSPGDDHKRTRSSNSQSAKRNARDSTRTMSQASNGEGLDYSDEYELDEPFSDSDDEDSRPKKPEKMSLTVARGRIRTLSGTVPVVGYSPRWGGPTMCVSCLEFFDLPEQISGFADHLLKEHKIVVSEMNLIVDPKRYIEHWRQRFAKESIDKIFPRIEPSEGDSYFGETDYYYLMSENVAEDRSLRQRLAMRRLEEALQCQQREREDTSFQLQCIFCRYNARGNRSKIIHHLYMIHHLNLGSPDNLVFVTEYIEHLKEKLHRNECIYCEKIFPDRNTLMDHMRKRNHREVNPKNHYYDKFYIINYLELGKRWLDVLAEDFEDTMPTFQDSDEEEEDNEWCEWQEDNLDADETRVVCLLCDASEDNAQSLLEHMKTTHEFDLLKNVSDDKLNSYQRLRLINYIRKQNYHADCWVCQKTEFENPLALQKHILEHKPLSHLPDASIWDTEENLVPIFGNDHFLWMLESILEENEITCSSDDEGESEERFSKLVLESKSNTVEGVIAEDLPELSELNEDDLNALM
Assay: affinity purification with mass spectrometry; ZTF-7::GFP::3xFLAG immunoprecipitated with anti-FLAG antibody from lysate of L3/L4 animals grown at 20°C (25 mM Tris-HCl pH 7.4, 150 mM NaCl, 10% glycerol, 1% NP-40, 1 mM EDTA), overnight at 4°C, Protein A/G agarose; SDS-PAGE, Coomassie stain, band cut out and identified by mass spectrometry

binding: binds
B1: RPS-2 (protein, UniProt P51403 1-272)
chain: MADRGGFQSGFGGRGGGRGGARPAGDRPAGRGGRGGRGGRGGRGGRAGRGGEKETEWTPVTKLGRLVKEKKITTLEEIYLNSLPIKEFEIIDALCSNLKDEVLKISPVQKQTTAGQRTRFKAFVAIGDHAGHVGLGVKCSKEVATAIRGAIVAAKLAVVPVRRGYWGNKIGLPHTVPCKVTGKCASVMVRLIPAPRGTGIVSAPVPKKLLHMAGIEDCYTAAKGSTATLGNFAKATYAALQRTYSYLTPDLWKEEALEKSPYQRHHEYLARN

No constants are given. Whether binding was seen depends on the method and setting. Binding seen in cells or lysates may run through a third protein. Here binding means that the protein was enriched with, or labelled near, the bait; the list need not be complete. Where a sequence is shown, tags or fusion partners need not be part of it.
